Results are given in words; binding and its absence hold for the method and conditions named. Some results given as binding are weak or reduced against the parent protein; the word gives no strength.
Molecular target: PSMA as used in the Biacore assay (UniProt Q04609)
Assay: Biacore, kinetics of binding to PSMA

Amino acid sequences for entries named in this document (tags omitted). Residues count along the entry.
UniProt Q04609, residues 44-750: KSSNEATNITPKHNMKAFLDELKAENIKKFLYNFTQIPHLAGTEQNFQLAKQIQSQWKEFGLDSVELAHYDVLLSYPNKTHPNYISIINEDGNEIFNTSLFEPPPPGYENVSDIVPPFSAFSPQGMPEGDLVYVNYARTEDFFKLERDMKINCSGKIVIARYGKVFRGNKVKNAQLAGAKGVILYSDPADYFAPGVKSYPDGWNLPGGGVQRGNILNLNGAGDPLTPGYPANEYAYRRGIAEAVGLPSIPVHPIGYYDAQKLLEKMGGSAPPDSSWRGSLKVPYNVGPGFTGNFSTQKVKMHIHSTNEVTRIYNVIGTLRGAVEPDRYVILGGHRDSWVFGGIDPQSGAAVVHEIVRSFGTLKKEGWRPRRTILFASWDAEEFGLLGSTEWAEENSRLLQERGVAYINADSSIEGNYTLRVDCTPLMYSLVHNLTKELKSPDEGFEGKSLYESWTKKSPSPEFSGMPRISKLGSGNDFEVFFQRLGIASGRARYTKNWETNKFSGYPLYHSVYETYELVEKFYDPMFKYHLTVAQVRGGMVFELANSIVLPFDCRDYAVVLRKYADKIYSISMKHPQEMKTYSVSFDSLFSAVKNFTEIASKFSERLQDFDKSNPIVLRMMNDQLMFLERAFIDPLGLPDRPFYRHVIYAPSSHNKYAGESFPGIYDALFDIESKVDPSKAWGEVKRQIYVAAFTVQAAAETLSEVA

binding: binds
B1: DVD (clone 15) with the NG-to-NT mutation in HCDR2 of the PSMA binding domain (bispecific antibody, not shown: a dimerising Fc or GST; large carriers)
heavy: EVQLVESGGGVVQPGRSLRLSCVASGFPFNNYWMTWIRQAPGKGLEWIASITITGGTTYYPGSVKGRFTISRDNSKSTLYLQMNSLRAEDTAVYYCTRERYSTEYYPYYWYFDFWGQGTMVTVSSGGGGSGGGGSEVQLVQSGAEVKKPGSSVKVSCKASGYTFTDYYMNWVKQAPGKGLEWIGLINPSNTGTNYNQKFRDKATLTVDKSTSTAYMELSSLRSEDTAVYYCARRAQATSGDYWGQGTTVTVSS
light: DIQMTQSPSSLSASVGDRVTITCRTSQDIGNYLRWFQQKPGKSPKLMIYDAINLAAGVPSRFSGSGSGTDYTLTISSLQPEDVATYYCLQHNEYPYTFGQGTKLEIKRGGSGGGGSGDIQMTQSPSSLSASVGDRVTITCHASQNINVWLSWYQQKPGKAPKLLIYKASNLHTGVPSRFSGSGSGTDFTFTISSLQPEDIATYYCQQGQTYPLTFGGGTKVEIK
